The nature of this data set: general procedure: Fmoc solid-phase peptide synthesis; 2-Chlorotrityl chloride resin; HBTU, HOBT, DIPEA. The following applies: whole synthesis, scale 0.04 mmol.

The same purity stands for every peptide and may come from a single statement.

For the substance “2,2',2''-(10-(2-((8-(((S)-3-(((2S,3S)-1-(((3S,6S)-6-(((2H-1,2,3-triazol-4-yl)methyl)carbamoyl)-4-oxo-1,2,3,4,6,7-hexahydroazepino[3,2,1-hi]indol-3-yl)amino)-3-methyl-1-oxopentan-2-yl)amino)-1-carboxy-3-oxopropyl)amino)-8-oxooctyl)amino)-2-oxoethyl)-1,4,7,10-tetraazacyclododecane-1,4,7-triyl)triacetic acid”, the “final purity (method not given)” value came to 98%, the isolated mass turned out to be 7.1 mg and the isolated yield worked out at 16%.
The corresponding values for “2,2',2''-(10-(2-(((S)-3-((3-(2-(((2S,3S)-1-(((3S,6S)-6-(((2H-1,2,3-triazol-4-yl)methyl)carbamoyl)-4-oxo-1,2,3,4,6,7-hexahydroazepino[3,2,1-hi]indol-3-yl)amino)-3-methyl-1-oxopentan-2-yl)amino)-2-oxoethyl)benzyl)amino)-1-carboxy-3-oxopropyl)amino)-2-oxoethyl)-1,4,7,10-tetraazacyclododecane-1,4,7-triyl)triacetic acid” are 98%, 11 mg and 25%.
On to “2,2',2''-(10-(2-(((S)-3-(((S)-3-((3-(2-(((2S,3S)-1-(((3S,6S)-6-(((2H-1,2,3-triazol-4-yl)methyl)carbamoyl)-4-oxo-1,2,3,4,6,7-hexahydroazepino[3,2,1-hi]indol-3-yl)amino)-3-methyl-1-oxopentan-2-yl)amino)-2-oxoethyl)benzyl)amino)-1-carboxy-3-oxopropyl)amino)-1-carboxy-3-oxopropyl)amino)-2-oxoethyl)-1,4,7,10-tetraazacyclododecane-1,4,7-triyl)triacetic acid”, for which the “final purity (method not given)” value is recorded as 98%, the isolated mass was 12 mg and the isolated yield came out at 25%.

These data come from PMC9374377 (The Journal of Clinical Investigation, 2022).
